Where a name gives a salt, the structure may show the parent alone. Single values are uncertain, as repeats are few or missing.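 All cells are established human bladder cancer lines, one derived from a patient-derived xenograft. A luminescent ATP assay measured viability as percent inhibition relative to vehicle across seven dilutions. The paper rates scores above 59 very active, 30–59 active, 21–29 semi-active, 9–20 low active, below 9 inactive.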
How the values were obtained:
Experiment in all cases: drug sensitivity score DSS3 (score 0-100); higher = more sensitive; extreme values may be limits of the assay
Conditions in all cases: culture: 3D, ultra-low attachment; treatment time: 5 days
[1] = test system: UM-UC-15
[2] = test system: BC8149
[3] = test system: UM-UC-5
[4] = test system: UM-UC-6
[5] = test system: SW780
[6] = test system: SCaBER
[7] = test system: UM-UC-9
[8] = test system: UM-UC-14
[9] = test system: UM-UC-18
[10] = test system: J82
[11] = test system: UM-UC-1
[12] = test system: UM-UC-3
[13] = test system: UM-UC-17
[14] = test system: TCCSUP
[15] = test system: UM-UC-12
[16] = test system: 5637
[17] = test system: T-24

SMILES	drug sensitivity score DSS3 [1]	drug sensitivity score DSS3 [2]	drug sensitivity score DSS3 [3]	drug sensitivity score DSS3 [4]	drug sensitivity score DSS3 [5]	drug sensitivity score DSS3 [6]	drug sensitivity score DSS3 [7]	drug sensitivity score DSS3 [8]	drug sensitivity score DSS3 [9]	drug sensitivity score DSS3 [10]	drug sensitivity score DSS3 [11]	drug sensitivity score DSS3 [12]	drug sensitivity score DSS3 [13]	drug sensitivity score DSS3 [14]	drug sensitivity score DSS3 [15]	drug sensitivity score DSS3 [16]	drug sensitivity score DSS3 [17]
C=CC(=O)N1C[C@H](Nc2ncnc3[nH]ccc23)CC[C@@H]1C (max dose 10000 nM)	0	0	0	0	0	0	0	0	0	0	0	0	0	0	0	0	–
CC(C)c1cc(-c2ccc(F)c3ccccc23)nc(N)n1 (max dose 10000 nM)	0.139	0	0	0	0	0	0	0	0	0	0	0	0	0	0	0	–
CC(C)c1cnn2c(NCc3ccccc3-n3cccn3)nc(OC3CCCNC3)nc12 (stereo not drawn) (max dose 10000 nM)	30.8	0.0951	0	13.2	0	0.131	1.22	3.78	4.55	0	0	0	8.48	6.78	0	4.37	–
CNC(=O)[C@@H](NC(=O)[C@H](CCCc1ccccc1)[C@H](C)N(O)C=O)C(C)(C)C (max dose 10000 nM)	14	0	0	0	0	0	0	0	0	0	0	0	0	0	0	0	–
Cc1ccc([N+](=O)[O-])cc1S(=O)(=O)N(C)C (max dose 10000 nM)	0	–	0	0	0	–	0	0	0	0	0	0.163	0	0	0	0	0
N#CC[C@H](C1CCCC1)n1cc(-c2ncnc3[nH]ccc23)cn1 (max dose 10000 nM)	0	4.01	2.7	0.0588	0.117	0	1.29	1.01	0.0297	0	0.105	1.54	3.13	8.52	0	12.2	–
CNC(=O)c1cccc(-c2ccc3c(N4CCOC[C@@H]4C)nc(N4CCOC[C@@H]4C)nc3n2)c1 [AZD2014] (max dose 10000 nM)	0	44.5	28.5	22.6	12.9	33.1	11.4	19.8	20.2	14.3	33.3	14.5	6.89	44.4	25.2	30.5	–
COc1ccc(-n2nc(C(N)=O)c3c2C(=O)N(c2ccc(N4CCCCC4=O)cc2)CC3)cc1 [Apixaban] (max dose 10000 nM)	0	3.97	0	0	0	1.13	0	0.786	2.89	0.417	0.858	2.17	0	0.259	0	0.939	–
CCN1CCN(C(=O)Cc2ccc(Nc3ncc(F)c(Nc4ccc(C(=O)Nc5ccccc5Cl)cc4)n3)cc2)CC1 [Aurora A Inhibitor I] (max dose 10000 nM)	0.237	1.65	0	1.3	0	1.43	0	1.33	0.871	0	3.02	0.65	0	3.43	0.821	2.52	–
Cn1cnc([N+](=O)[O-])c1Sc1ncnc2[nH]cnc12 [Azathioprine] (max dose 10000 nM)	0	1.48	0.145	1.8	0	0.943	0	2.79	10.5	0.868	0	2.35	0.596	3.14	0	2.63	–
CO[C@H]1CC[C@H](N2C(=O)CNc3ncc(-c4ccc(C(C)(C)O)nc4)nc32)CC1 [CC-223] (max dose 10000 nM)	0.279	7.62	0.88	1.8	1.55	4.41	2.24	2.45	1.47	1.5	1.95	0.612	0	7.59	3.33	4.16	–
O=C(c1ccc(F)c(F)c1Nc1ccc(I)cc1F)N1CC(O)([C@@H]2CCCCN2)C1 [Cobimetinib (GDC-0973, RG7420)] (max dose 10000 nM)	11.7	13.1	26	2.01	0.959	39.6	0.931	10.4	2.9	0	19.4	21.4	3.58	25.4	12.1	31.5	–
CN1CCN(c2ccc3nc(-c4c(N)c5c(F)cccc5[nH]c4=O)[nH]c3c2)CC1 [Dovitinib (TKI-258, CHIR-258)] (max dose 10000 nM)	0	1.02	0	0.0317	0	5.21	0	1.75	0.742	0.956	0.549	0	1.62	9.34	7.28	3.88	–
O=C(N/N=C/c1ccc(O)c(O)c1)c1cc2ccccc2cc1O [Dynasore] (max dose 10000 nM)	9.7	0	0	0.841	0	0	0.268	0	0.127	0	0	0	0.234	0.447	0	1.23	–
CCOc1ccc(Cc2cc([C@]34OC[C@](CO)(O3)[C@@H](O)[C@H](O)[C@H]4O)ccc2Cl)cc1 [Ertugliflozin] (max dose 10000 nM)	16.5	0	0	0	0	0	0	0	0	0	0	0	0	0	0	0	–
Nc1nc(F)nc2c1ncn2[C@@H]1O[C@H](CO)[C@@H](O)[C@@H]1O [Fludarabine] (max dose 10000 nM)	0	1.61	0	8.8	0	0	0.277	8.95	19	0	3.32	0	5.29	10.5	1.07	6.63	–
O=C1[C@H](Cc2ccc(O)cc2)N2C(=O)CCN(C(=O)NCc3ccccc3)[C@H]2CN1Cc1cccc2ccccc12 [ICG-001] (max dose 10000 nM)	0	0	0	0.993	0	0.0687	0.292	0.912	0	0	0	0	0	0	1.86	0.873	–
NC1(c2ccc(-c3nc4ccn5c(=O)[nH]nc5c4cc3-c3ccccc3)cc2)CCC1 [MK-2206 2HCl, MK2206] (max dose 10000 nM)	0	8.26	8.52	1.21	0.00459	3.18	0.529	2.66	7.61	0.0183	1.92	1.12	0	14	0	7.74	–
O=C(c1cccc(Cl)c1F)N1CCN(Cc2cccc(Nc3nccs3)n2)CC1 [MK-8745] (max dose 10000 nM)	10.4	3.46	0	5.61	0.0333	0	0	2.04	0	0.184	5.9	0	0.72	9.13	0.89	5.01	–
Cc1cc(C)nc(NC(=S)N2CCN(Cc3ccc(C(F)(F)F)cc3)CC2)c1 [NCT-503] (max dose 10000 nM)	35.7	0	0	0.000902	0	0	0.142	0	0.157	0	0	0	0	0	0	0	–
O=C([C@@H](Cc1cccc(C(F)(F)F)c1)NS(=O)(=O)c1cc(F)c2c(c1)CCNC2)N1CCCC1 [PFI-2 HCl] (max dose 10000 nM)	0	0	0	4.46	0	0	0	8.37	0	0	9.95	1.55	6.47	15	0	0.109	–
COc1ccc(Cl)c(Nc2nc3ccccc3nc2NS(=O)(=O)c2cccc(NC(=O)C(C)(C)N)c2)c1 [Pilaralisib (XL147)] (max dose 10000 nM)	0	–	0	0.613	0	–	0.00685	0	0	0	0.517	1.03	0.208	4.25	1.44	2.71	0
CC(C)(C)c1[nH]cnc1/C=c1\[nH]c(=O)/c(=C/c2ccccc2)[nH]c1=O [Plinabulin (NPI-2358)] (max dose 10000 nM)	0	13	6.25	28.8	20.5	0.0273	11	29.2	0	0.017	21.3	13.8	47.3	52.4	20.9	36.8	–
CC[C@]1(O)C[C@@H]2CN(CCc3c([nH]c4ccccc34)[C@@](C(=O)OC)(c3cc4c(cc3OC)N(C)[C@H]3[C@@](O)(C(=O)OC)[C@H](OC(C)=O)[C@]5(CC)C=CCN6CC[C@]43[C@@H]65)C2)C1 [Vinblastine sulfate] (max dose 10000 nM)	0.00681	37.1	29.8	39.3	36	27.8	31.6	54.5	27.5	26.3	54.1	39.5	48.4	63.8	24.9	54.6	–
FC(F)c1nc2ccccc2n1-c1nc(N2CCOCC2)nc(N2CCOCC2)n1 [ZSTK474] (max dose 10000 nM)	0	28.6	13.1	1.44	0	2.81	0	0.593	0	1.05	0	10.2	0	10.6	4.26	3.14	–

Retrieved one by one from the list above, two records:
SMILES	drug sensitivity score DSS3 [1]	drug sensitivity score DSS3 [2]	drug sensitivity score DSS3 [3]	drug sensitivity score DSS3 [4]	drug sensitivity score DSS3 [5]	drug sensitivity score DSS3 [6]	drug sensitivity score DSS3 [7]	drug sensitivity score DSS3 [8]	drug sensitivity score DSS3 [9]	drug sensitivity score DSS3 [10]	drug sensitivity score DSS3 [11]	drug sensitivity score DSS3 [12]	drug sensitivity score DSS3 [13]	drug sensitivity score DSS3 [14]	drug sensitivity score DSS3 [15]	drug sensitivity score DSS3 [16]	drug sensitivity score DSS3 [17]
Cc1ccc([N+](=O)[O-])cc1S(=O)(=O)N(C)C (max dose 10000 nM)	0	–	0	0	0	–	0	0	0	0	0	0.163	0	0	0	0	0
CC(C)(C)c1[nH]cnc1/C=c1\[nH]c(=O)/c(=C/c2ccccc2)[nH]c1=O [Plinabulin (NPI-2358)] (max dose 10000 nM)	0	13	6.25	28.8	20.5	0.0273	11	29.2	0	0.017	21.3	13.8	47.3	52.4	20.9	36.8	–
